At least one compound was matched to its structure with a doubt left.
Tests used:
Assay type in all cases: in vivo, human
[1] = Serum lipids (commercial laboratory), 2-year RCT of SDD versus placebo; conditions: intent-to-treat
Excerpt: The objective of this study was to determine whether sub-antimicrobial-dose-doxycycline (SDD) can reduce serum inflammatory biomarkers associated with cardiovascular disease (CVD) risk (primary outcome: CRP) in a two-year, randomized controlled clinical trial (RCT) in postmenopausal (PM) women with systemic osteopenia and periodontitis. 113 women who completed the RCT (SDD group: n=51; placebo group: n=62) consented at the final (two-year) study visit for their baseline, one-year and two-year serum samples to be analyzed for serum inflammatory biomarkers. Analyses by ELISA included CRP (high-sensitivity ELISA), IL-6, myeloperoxidase (MPO), IL-1β and TNF-α. Serum lipids (total cholesterol, HDL cholesterol, LDL cholesterol, VLDL cholesterol, and triglycerides) were analyzed by a commercial laboratory. Statistical analyses were performed using Generalized Estimating Equations; primary analyses were intent-to-treat (ITT). Pre-specified subgroup analyses also were performed. All results are presented as ratios of median values (SDD versus placebo) unless otherwise indicated.

myeloperoxidase (MPO) = assay: Serum myeloperoxidase by ELISA, 2-year RCT of SDD versus placebo; conditions: intent-to-treat
MMP-9 = assay: Serum MMP-9 by gelatin zymography, 2-year randomized clinical trial of SDD versus placebo; conditions: 2-year regimen, p=0.5
Excerpt: Elevated circulating MMP 9 has been associated with increased risk for fatal cardiac events and PM are considered a population vulnerable, due to decreased estrogen levels, to cardiovascular disease.
Details concerning subject inclusion and exclusion criteria have been published previously (Payne et al., J. Clin. Periodontol. 34:776-787, 2007). Briefly, subjects were 45-70 years of age at telephone screening, postmenopausal, osteopenic at the lumbar spine or femoral neck, and not receiving hormone replacement therapy (HRT). […] The subjects also had to be in good general health without co-morbidities that could have interfered with adherence to the study protocol, planned follow-up or endpoint measurement.
113 PM women who completed the randomized clinical trial (RCT) consented at the final (two-year) study visit for the analysis of stored serum samples. 51 subjects received SDD (20 mg doxycycline) and 62 received placebo tablets b.i.d. for 2 years. Serum samples were collected at the baseline, 1-year and 2-year appointments and frozen at −80° C. until analyzed. MMPs were measured by gelatin zymography using denatured type I collagen as a substrate and purified MMP-2 (72 kDa) and MMP-9 (92 kDa) as standards. Gelatinolytic bands were scanned densitometrically. Statistical analyses were performed using Generalized Estimating Equations. Primary analyses were intent-to-treat (ITT). […]

IL-6 = assay: Serum IL-6 by ELISA, 2-year RCT of SDD versus placebo; conditions: intent-to-treat

C[C@H]1c2cccc(O)c2C(=O)C2=C(O)[C@]3(O)C(=O)C(C(N)=O)=C(O)[C@@H](N(C)C)[C@@H]3[C@@H](O)[C@@H]21 [SDD, 6α-deoxy-5-hydroxytetracycline]
serum lipids, difference between groups [1]: no significant difference
MPO, difference between groups (myeloperoxidase (MPO)): no significant difference
effect on higher molecular weight forms (MMP-9 homodimer) in serum (MMP-9): not significantly affected
IL-6, difference between groups (IL-6): no significant difference
